Data published in article PMC10163288.
The other results are listed elsewhere or left out.

B1: il2ra_site1_1z92_normal_mot_ems_4hC_799_0001_000000043_0001_18_33_H_._c6bbdfcc86d42384e443e22edc3665cc_0001_af2_0001_0000100003_0000001_0 (protein)
chain: SRQELQHLIEELREEGVPPEEIVKILLELVEKDAGDPRLALQFLKRLLKKLGDPELLRVLEELIK
B2: il2ra_site1_1z92_normal_mot_HHH_b1_02117_000000029_0001_1_15_H_._HHH_b2_01516_0001_0000400017_0000001_0 (protein)
chain: SSSSDLERAVRILLEIVEELLKNGNPESARNNLRFAERFAKENNDEELEEEIEEVRERVENSSSS
B3: il2ra_site2_3nfp_normal_mot_HHH_b1_03376_000000004_0001_41_55_H_._HHH_b1_05644_af2_0001_0000900045_0000001_0_af2pred_0001_1_af2pred_swapped (protein)
chain: SSSSSEEEREIKELLEEAQELLKNGNPEEAEKLVLEAALLAFEINNPELAFEAAELLLKIRSSSS
B4: il2ra_site2_3nfp_normal_mot_HHH_b1_05627_af2_000000038_0001_43_56_H_._HHH_b1_07789_af2_0001_0000700008_0000001_0 (protein)
chain: SSSSDKAEEYVRAAILAARAALEAGDPEAAKRHLEAAYLLAEARRNPLLEEVEELLEELRSSSSS
B5: il2ra_site2_2erj_sap_27_mot_35d2dc24e2c4431f89e6f806b163ecf8_0001_af2_000000103_0001_35_49_H_._dcd9809507f71d420582ead1f1e1bbb3_0001_0001_0000400018_0000001_1_0 … (protein)
chain: SSSSDEEERELEELIKRAEELLEQGNPEEALFVLFRAARIAFELGDEETAIKIARLAIEIRSSSS
B6: il2ra_site2_2erj_normal_mot_HHH_b1_01129_af2_000000281_0001_18_33_H_._HHH_b2_04351_0001_0000300029_0000001_0 (protein)
chain: SSSSSSDVEEEVERLLEEAKEISDLREVYRLLNEALRLAAERRDEELQELVLKVVEEHSSSSSSS
B7: il2ra_site1_2b5i_normal_mot_f5ff40796168375b462bec8614a1db4a_0001_1_000000138_0001_53_65_H_._HHH_b2_02299_0001_0000100002_0000001_0_af2pred_dldesign_0_af2pred (protein)
chain: SSSSSDPEELRELTLELLEEAKKIEDPKERLRLLRLARRVARKAGDAELIAEVEALLEELSSSSS
B8: il2ra_site2_3nfp_normal_mot_HHH_b2_04451_000000238_0001_21_37_H_._HHH_b2_04195_af2_0001_0000200011_0000001_0 (protein)
chain: SSSSSEEEEVRELLEQARELLERGDPYEALELLAEASEIAAKLNNEELARLILELFEKVQKSSSS
B9: il2ra_site2_2erj_normal_mot_5ab283b237ac2ed796690f09fe12d960_0001_000000016_0001_18_34_H_._HHH_b1_05687_0001_0000800035_0000001_0_af2pred_0001_1_af2pred_swapped (protein)
chain: SSSSDEEIEEIIERLVKEYNLSEEQEKRLRLAAELALEAGNDKNAIRRWLEALARFAAKGSSSSS
B10: il2ra_site1_3nfp_normal_mot_HHH_b2_00128_000000255_0001_39_54_H_._HHH_b2_00006_0001_0000300009_0000001_1_af2pred_0001_af2pred_1 (protein)
chain: SSSSDEEVRERVEELLEEAKRITDIREHSELLREALKLARELRDRELLELVERVAREAAKSSSSS
B11: il2ra_site1_2b5i_sap_10_mot_HHH_b1_05282_000000062_0001_1_18_H_._f0ee23d083d0677da3dfcc8a6cd225b6_0001_af2_0001_0000400018_0000001_0_0001_af2pred_dldesign_0_af2 … (protein)
chain: SSSSSSDPEAERKKLLDEAYEKANKEQKKELLKLYYLAQKTKDPEKLEKAVELAKEVLSSSSSSS
B12: il2ra_site1_3nfp_normal_mot_136a1b26558f6d63e39c8b7f62c9aa34_0001_af2_000000044_0001_17_31_H_._HHH_b2_05289_0001_0000500029_0000001_0_af2pred_0001_af2pred (protein)
chain: SSSSSSDEEEELEELAEKAKKITDPREAQKVVEEMVELVKRSGDPELHEFLREVMRELASSSSSS
B13: il2ra_site1_3nfp_sap_9_mot_HHH_b1_03479_af2_000000099_0001_1_19_H_._HHH_b2_00795_0001_0000100003_0000001_0_0001_af2pred_0001_af2pred_swapped (protein)
chain: SSSSSSEAEEEVEELLEEAKRIEDSKEANEVMRRAIKLARELNNEELRELIYKVLEELAKSSSSS
B14: il2ra_site1_2b5i_normal_mot_HHH_b2_04910_000000118_0001_1_19_H_._HHH_b2_07406_0001_0000200016_0000001_0_af2pred_0001_af2pred_1 (protein)
chain: SSSSSEEQERLRELLEKANKLDKNGNPEEAREVLEEAEELAEELGDKSARRLIEAALKLLESSSS
B15: il2ra_site1_3nfp_sap_15_mot_HHH_b2_01582_af2_000000000_0001_1_16_H_._HHH_b2_07153_0001_0000400022_0000001_0_0001 (protein)
chain: SSSSTIEELRELAELLKELSKTDEEEFERVFEEARKLAEEHGDKVARWLLEQYKRNLKERSSSSS
B16: il2ra_site1_3nfp_sap_17_mot_HHH_b1_02637_af2_000000013_0001_1_18_H_._HHH_b2_00825_af2_0001_0000400017_0000001_0_0001 (protein)
chain: SSSSSEAKEEFWRLIRELIRAQKEGDEELAKKLAELLEELAEERNDESALRVVEELLELLRSSSS
B17: il2ra_site2_3nfp_normal_mot_HHH_b1_05785_af2_000000002_0001_41_57_H_._HHH_b1_00695_af2_0001_0000100002_0000001_0 (protein)
chain: SSSSDEAEEYLRAAIELAERAAEEDPEIAEKSLELARKLAESLHDEEAKERIEELLEAIEESSSS
B18: il2ra_site2_3nfp_normal_mot_HHH_b2_07670_af2_000000034_0001_1_17_H_._HHH_b1_07540_af2_0001_0000500026_0000001_0 (protein)
chain: SSSDEEDLELAIEYALIAARLWGDEEVVKEIEELLERFRKEGDREYTTEVWELAREILEEGSSSS
B19: il2ra_site1_2b5i_sap_9_mot_HHH_b2_07540_af2_000000089_0001_1_16_H_._HHH_b1_01333_af2_0001_0000100003_0000001_0_0001_af2pred_0001_af2pred (protein)
chain: SSSSSSEELLELLREADELFKNGNPEEAEKVLERAEELAERNGTKSMLRSVRSMLELLRESSSSS
B20: il2ra_site2_2erj_sap_27_mot_HHH_b2_01204_af2_000000051_0001_19_34_H_._HHH_b2_01941_af2_0001_0000300007_0000001_0_0001_af2pred_0001_af2pred_swapped (protein)
chain: SSSSSSDEEEEVERLLEEAKEIKDKREALEILEEASRIASKAGDEELLELVQRVARELSSSSSSS
B21: il2ra_site1_2b5i_sap_14_mot_HHH_b1_01419_af2_000000080_0001_42_53_H_._ems_3hC_1598_af2_0001_0000100003_0000001_0_0001_af2pred_0001_af2pred (protein)
chain: SSSSSSQEKAFEWAERFIEQLIEEGDEEAARKAIEELRHLAERSNNPEMRKIVERLEEELSSSSS
B22: il2ra_site1_2b5i_sap_14_mot_HHH_b1_05017_af2_000000115_0001_1_18_H_._HHH_b2_01703_af2_0001_0000200005_0000001_0_0001_af2pred_0001_af2pred_1 (protein)
chain: SSSSDEAFHEVLELYRRASRLFQKGDKEEARKLLEEAQELAEEAGDEVAVKDLRRMLELLKSSSS
B23: il2ra_site2_2erj_normal_mot_8a316d4779eb53efc793250774d75e68_0001_af2_000000043_0001_18_32_H_._HHH_b1_04199_0001_0000200023_0000001_1 (protein)
chain: SSSSSSEYEERIEELIEEARRVSEEEAEKLLSEAFELAFRNNDVEIASEVIELVAELARASSSSS
B24: il2ra_site2_2erj_sap_21_mot_2e60acbd11533cd3bad2fa8ba2aa37e0_0001_af2_000000288_0001_35_49_H_._HHH_b1_03230_0001_0000300009_0000001_0_0001_af2pred_dldesign_0_af … (protein)
chain: SSSSSPEVKALIEETKRLLEKGEVEKAEEVLRKAALLAFAAGDEEQLDELAGLAGEIELAKSSSS

Molecular target: il2ra, P01589
Assay: yeast display titration

Apparent Kd, inactive:
B1 no binding seen, B2 no binding seen, B3 no binding seen, B4 no binding seen, B5 no binding seen, B6 no binding seen, B7 no binding seen, B8 no binding seen, B9 no binding seen, B10 no binding seen, B11 no binding seen, B12 no binding seen, B13 no binding seen, B14 no binding seen, B15 no binding seen, B16 no binding seen, B17 no binding seen, B18 no binding seen, B19 no binding seen, B20 no binding seen, B21 no binding seen, B22 no binding seen, B23 no binding seen, B24 no binding seen
